PubChem BioAssay AID504327 (National Center for Advancing Translational Sciences (NCATS), 2011)
The campaign covered roughly 390,000 compounds. About 820 (0.21%) were called active. The inconclusive results got no clear call from the source; some entries with a clear call stand among them for comparison. Calls follow the shape of the dose curve; as a rule, active = well fitted inhibition curve with a large enough effect; inconclusive = small, poorly fitted or top-dose-only effect, or another doubt; inactive = no such curve, though single readings can be large or run the other way. Potencies beside an inconclusive call are fits to weak or partial responses and may not hold up. Non-standard residues stand in square brackets, D forms with d. Residues, ends and D or L forms follow the SMILES beside them. Abu = CC[C@H](N)C(=O)O

By UniProt entry, the sequences of proteins in these tests, tags left out.
UniProt Q92830, whole entry, looked up: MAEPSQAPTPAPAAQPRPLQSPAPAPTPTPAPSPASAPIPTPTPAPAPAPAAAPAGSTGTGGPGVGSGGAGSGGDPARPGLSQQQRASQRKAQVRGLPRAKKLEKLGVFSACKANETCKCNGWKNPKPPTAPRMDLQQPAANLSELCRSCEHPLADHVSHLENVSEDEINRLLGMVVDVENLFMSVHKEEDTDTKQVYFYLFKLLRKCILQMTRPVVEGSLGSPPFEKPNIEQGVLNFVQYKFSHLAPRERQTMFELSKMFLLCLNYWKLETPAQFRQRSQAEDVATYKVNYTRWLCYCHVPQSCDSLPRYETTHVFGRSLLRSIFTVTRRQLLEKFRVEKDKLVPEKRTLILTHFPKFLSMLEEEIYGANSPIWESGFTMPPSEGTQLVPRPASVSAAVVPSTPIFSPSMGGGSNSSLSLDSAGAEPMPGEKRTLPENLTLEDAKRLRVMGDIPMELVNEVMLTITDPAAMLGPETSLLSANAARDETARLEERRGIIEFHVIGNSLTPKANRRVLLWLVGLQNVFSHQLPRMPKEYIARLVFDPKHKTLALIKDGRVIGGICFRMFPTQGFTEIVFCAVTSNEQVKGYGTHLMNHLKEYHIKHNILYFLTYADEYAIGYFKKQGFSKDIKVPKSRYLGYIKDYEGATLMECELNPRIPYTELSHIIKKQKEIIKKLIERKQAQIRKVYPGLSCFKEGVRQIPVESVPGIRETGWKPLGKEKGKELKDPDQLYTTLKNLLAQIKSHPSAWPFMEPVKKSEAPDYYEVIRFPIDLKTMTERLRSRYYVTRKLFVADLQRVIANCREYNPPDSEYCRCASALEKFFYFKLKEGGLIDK

Target: Histone acetyltransferase KAT2A (Homo sapiens) (UniProt Q92830)
Assay: qHTS Assay for Inhibitors of GCN5L2
Details: GCN5L2 HAT assay, ThioGlo1 CoA-SH fluorescence; activity change, negative = inhibition: at 58.9 µM (top of the series) unless noted
How it was run: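 Fluorescence readout, Ex340nm/Em540nm: ThioGlo1 (50uM final) reacts with free CoA thiol released as 20nM GCN5L2 acetylates H3(1-25) peptide (75uM) using acetyl-CoA (70uM). Compound and enzyme sat 15 min beforehand; 20 min room-temperature reaction.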
% is scaled to controls: 0 for no effect and ±100 for the full control effect; potency is read from the fitted curve at half-maximal effect.

| SMILES | Potency | activity change, negative = inhibition |
| --- | --- | --- |
| Cc1ccccc1NC1=NC2(CCCC2)N=C(N)N1 | inactive |  |
| COc1ccc(CCn2c(-c3ccco3)nc3nc4ccccc4nc32)cc1 | inconclusive: 35.5 µM [inhibitor, partial curve] |  |
| CCOc1cc(-c2cc(-c3ccc(C)cc3)nc(N)c2C#N)ccc1O | inactive |  |
| Cc1ccc(CN2CCN(CC3CC4C=CC3C4)CC2)cc1 (stereo unspecified) | inconclusive: 6.31 µM [inhibitor, single point] |  |
| COc1ccc(OC)c2c1sc(=NC(=O)c1cccc(N3C(=O)CCC3=O)c1)n2C | inconclusive: 3.98 µM [inhibitor, full curve] |  |
| NC(=O)C[n+]1cccc2ccccc21 | inactive |  |
| NC[C@@H]1O[C@@H](O[C@H]2[C@H](O)[C@H](O[C@@H]3O[C@H](CO)[C@@H](O)[C@H](N)[C@@H]3O)[C@@H](N)C[C@H]2N)[C@H](N)C[C@@H]1O | inconclusive: 12.6 µM [inhibitor, single point] |  |
| COC(=O)NC(=S)Nc1ccc(Oc2ccc(Cl)cc2)c(Cl)c1 | inactive |  |
| Cc1cc(C)c2nc(-c3ccccn3)cc(C(=O)Nc3ccc(S(=O)(=O)Nc4cc(C)on4)cc3)c2c1 | inconclusive: 8.91 µM [inhibitor, full curve, poor fit] |  |
| CC1(C)Cc2c(c(N3CCOCC3)nc3sc(-c4ccc(C(=O)O)o4)c(N)c23)CO1 | inconclusive: 28.2 µM [inhibitor, single point] |  |
| Cc1nn2c(NCCCN(C)C)c3c(nc2c1-c1ccccc1)CCC3 | inconclusive: 39.8 µM [inhibitor, single point] |  |
| CCc1c(C2(O)CCCCC2)[nH]c2c(C(=O)OC)cc(Cl)cc12 | inactive |  |
| O=C(OC(C(=O)NC1CCCC1)c1ccccn1)c1cccs1 (stereo unspecified) | inconclusive: 15.8 µM [inhibitor, partial curve] |  |
| Cc1c(C(=O)N(Cc2ccccc2)C2CCS(=O)(=O)C2)oc2ccccc12 (stereo unspecified) | inconclusive: 1 µM [inhibitor, full curve] |  |
| O=C(Nc1cccc(-c2cn3cccnc3n2)c1)c1ccc2c(c1)OCO2 | inconclusive: 8.91 µM [inhibitor, single point] |  |
| CC[C@H](NC(=O)[C@H](CCCN=C(N)N)NC(=O)[C@H](Cc1c[nH]c2ccccc12)NC(=O)[C@@H](N)CS)C(=O)N[C@@H](CCCN=C(N)N)C(=O)N[C@@H](Cc1ccc(O)cc1)C(N)=O (H-CWR[Abu]RY-NH2) | inconclusive: 5.01 µM [inhibitor, partial curve] |  |
| Cc1ccc(C)c(N(CC(=O)NC2CCCCC2)C(=O)CCC(=O)Nc2ccccn2)c1 | inconclusive: 0.794 µM [inhibitor, single point] |  |
| COc1ccc(-c2noc(CSc3nc4ccccc4[nH]3)n2)cc1OC | inactive |  |
| O=C(c1ccccc1)c1ccc(OCCn2cnc3ccccc3c2=O)cc1 | inconclusive: 31.6 µM [inhibitor, single point] |  |
| c1ccc(-c2nnc(SCc3nnc(-c4cccs4)o3)o2)cc1 | inactive |  |
| COc1ccc(OC)c(C(=O)CN2C(=O)NC(C)(c3ccccc3)C2=O)c1 (stereo unspecified) | inconclusive: 7.08 µM [inhibitor, single point] |  |
| Clc1ccc2nc(NCc3ccccc3)c3nncn3c2c1 | inactive |  |

| SMILES | Potency | activity change, negative = inhibition |
| --- | --- | --- |
| CC(=O)c1ccc(-c2nc3ccccc3n2C)o1 | inconclusive: 31.6 µM [inhibitor, partial curve] |  |
| O=C1CC(SCCO)C(=O)N1c1ccccc1 (stereo unspecified) |  | inconclusive: -97.6% [inhibitor] [at 0.501 µM] |
| COc1cccc(C(=O)Oc2cc(N)n(S(=O)(=O)c3ccc(C)cc3)n2)c1OC | inconclusive: 39.8 µM [inhibitor, single point] |  |
| COC(=O)Cc1c(C)c2cc3c(c(C)c2oc1=O)OCN(CCc1ccccc1F)C3 | inconclusive: 39.8 µM [inhibitor, single point] |  |
| CC1Sc2ccc(C(=O)Nc3ccccc3OC(F)F)cc2NC1=O (stereo unspecified) | inconclusive: 3.98 µM [inhibitor, partial curve, poor fit] |  |
| CS(=O)(=O)c1oc(-c2ccc(F)cc2)nc1S(=O)(=O)c1ccc(Cl)cc1 | inactive |  |
| C=C(C)c1cccc(C(C)(C)NC(=O)N2CCN(CC(N)=O)CC2)c1 | inconclusive: 0.794 µM [inhibitor, single point] |  |
| Oc1ccc(C2Oc3cc(O)cc(O)c3CC2O)cc1 (stereo unspecified) | inactive |  |
| O=C(CSc1ccc2nnc(-c3cccnc3)n2n1)Nc1ccccc1 | inconclusive: 39.8 µM [inhibitor, single point] |  |
| O=C1NC(=S)N(C(=O)c2ccc(F)cc2)/C1=C/c1cccnc1 | inconclusive: 31.6 µM [inhibitor, single point] |  |
| Cc1ccc(C(=O)NCC(=O)NC2CCCCCC2)cc1 | inactive |  |
| CC(C(=O)NCc1cccnc1)c1ccc([N+](=O)[O-])cc1 (stereo unspecified) | inconclusive: 8.91 µM [inhibitor, single point] |  |
| CC1=NOC(=O)/C1=C\c1ccc(-c2ccc(Br)cc2)o1 | inconclusive: 20 µM [inhibitor, partial curve] |  |
| CCOC(=O)c1ccc(NC(=O)C(CC)Sc2nnc3c4ccccc4n(C)c3n2)cc1 (stereo unspecified) | inactive |  |
| CCCN(C(=O)c1cn(-c2ccccc2)nc1-c1ccc(OC)cc1)C1CCS(=O)(=O)C1 (stereo unspecified) | inconclusive: 0.708 µM [inhibitor, full curve, poor fit] |  |
| COc1ccc(CCNC(=O)c2cc3sc(Cl)cc3n2C)cc1OC | inconclusive: 4.47 µM [inhibitor, single point] |  |
| CSc1nc(Cl)cc(=O)[nH]1 | inconclusive: 0.891 µM [inhibitor, single point] |  |
| O=C(NC(=S)NC1CCCCC1)c1ccccc1[N+](=O)[O-] | inconclusive: 7.08 µM [inhibitor, single point] |  |
| O=C1ON=C(c2ccccc2)/C1=C/c1ccc(OS(=O)(=O)c2ccccc2)cc1 | inconclusive: 28.2 µM [inhibitor, single point] |  |
| CCN1C(=O)c2cccc3c(NC(=O)C(C)(C)C)ccc1c23 | inactive |  |
| CN(C)c1ccc(/C=C/c2ccc3ccccc3n2)cc1 | inactive |  |
| CC(C)N1CCN(Cc2coc3ccccc3c2=O)CC1CCO (stereo unspecified) | inconclusive: 5.62 µM [inhibitor, full curve] |  |

2 consecutive records already listed, for reference:

| SMILES | Potency | activity change, negative = inhibition |
| --- | --- | --- |
| O=C(CSc1ccc2nnc(-c3cccnc3)n2n1)Nc1ccccc1 | inconclusive: 39.8 µM [inhibitor, single point] |  |
| O=C1NC(=S)N(C(=O)c2ccc(F)cc2)/C1=C/c1cccnc1 | inconclusive: 31.6 µM [inhibitor, single point] |  |

Next part.

| SMILES | Potency | activity change, negative = inhibition |
| --- | --- | --- |
| CC1(C)[C@@H](O)CC[C@]2(C)C3C(O)C=C4[C@H]5C[C@@](C)(CO)CC[C@]5(C)CC[C@]4(C)[C@]3(C)CC[C@@H]12 (stereo partly specified) | inactive |  |
| C=CCOc1ccc(C=NNc2ccc(S(=O)(=O)Nc3ccccc3C(=O)O)cc2[N+](=O)[O-])cc1OC | inconclusive: 10 µM [inhibitor, single point] |  |
| COc1ccc(C(CC(=O)N2CCCC(C)C2)c2c(OC)cc(OC)c3ccc(=O)oc23)cc1 (stereo unspecified) | inconclusive: 14.1 µM [inhibitor, partial curve] |  |
| COc1cccc(-c2nc(NCCN3CCOCC3)c3ccccc3n2)c1O | inconclusive: 0.708 µM [inhibitor, single point] |  |
| c1cn(-c2cc(-c3ccc4c(c3)OCO4)ncn2)cn1 | inconclusive: 28.2 µM [inhibitor, partial curve] |  |
| COc1ccc2nc(N(CCN(C)C)C(=O)c3ccc4c(c3)OCCO4)sc2c1 | inconclusive: 0.224 µM [inhibitor, full curve, poor fit] |  |
| O=C(NCCN1CCOCC1)c1ccc(/C=C2\Sc3ccccc3N(Cc3ccccc3F)C2=O)cc1 | inconclusive: 25.1 µM [inhibitor, single point] |  |
| Cc1ccc(OC(=O)c2cccc(C(=O)Oc3ccc(C)cc3)n2)cc1 | inconclusive: 39.8 µM [inhibitor, single point] |  |
| COc1ccc(C(=O)NC(=S)Nc2ccc3oc(=O)ccc3c2)cc1[N+](=O)[O-] | inconclusive: 39.8 µM [inhibitor, single point] |  |
| Cc1c(Br)c([N+](=O)[O-])nn1CC(=O)N1CCCc2ccccc21 | inconclusive: 0.794 µM [inhibitor, single point] |  |
| CCC(=O)Nc1ccccc1-c1nc2ccccc2n(C(C)C(=O)Nc2cccc(Cl)c2C)c1=O (stereo unspecified) | inconclusive: 39.8 µM [inhibitor, single point] |  |
| CC(C)c1ccc(Nc2ncnc3c2nc2n3CCCC2)cc1 | inactive |  |
| COc1ccc(-c2nc3cnc(N4CCNCC4)nc3n(CCc3ccccc3)c2=O)cc1 | inconclusive: 31.6 µM [inhibitor, single point] |  |
| COc1cc(/C(C)=C/c2ccccc2)c2c(c1)oc1ccccc12 | inconclusive: 2.82 µM [inhibitor, single point] |  |
| CC(C)Sc1cc(N2CCCC2)nc(-c2ccc(F)cc2)n1 | inconclusive: 3.16 µM [inhibitor, single point] |  |
| COc1ccccc1-c1nc(N)n[nH]1 | inconclusive: 39.8 µM [inhibitor, single point] |  |
| O=C(O)c1ccc(CN(Cc2ccccc2)S(=O)(=O)c2ccc(Cl)cc2)cc1 | inactive |  |
| CCN(CC)Cc1c(O)ccc2c(C)c(CC(=O)OC)c(=O)oc12 |  | inconclusive: -67.9% [inhibitor] |
| CCOc1ccccc1CNC(=O)c1cn(-c2ccc(OC)cc2)c(=O)c2ccccc12 | inconclusive: 39.8 µM [inhibitor, single point] |  |
| Cc1ccc(OCCNS(=O)(=O)c2ccc(N3CCCC3=O)cc2)cc1C | inconclusive: 3.55 µM [inhibitor, single point] |  |
| CCOc1ccc(NC(C)=O)cc1 | inconclusive: 8.91 µM [inhibitor, single point] |  |
| CC(=O)Nc1ccc(NC(=O)CSc2nnc(C)c(=O)n2N)cc1 | inconclusive: 39.8 µM [inhibitor, single point] |  |

In a second layout: results already given
c1cn(-c2cc(-c3ccc4c(c3)OCO4)ncn2)cn1
  Potency: inconclusive: 28.2 µM [inhibitor, partial curve]
COc1ccc2nc(N(CCN(C)C)C(=O)c3ccc4c(c3)OCCO4)sc2c1
  Potency: inconclusive: 0.224 µM [inhibitor, full curve, poor fit]
O=C(NCCN1CCOCC1)c1ccc(/C=C2\Sc3ccccc3N(Cc3ccccc3F)C2=O)cc1
  Potency: inconclusive: 25.1 µM [inhibitor, single point]
